Consider 1 molecule from the supplement of paper PMC8728848.

Assay in all cases: glycan array binding signal (z-score within array); higher = stronger binding
Common to all, as to details: glycan notation: IUPAC condensed, linker removed

The target in test [1] is Gal(b1-4)GlcNAc(b1-2)[Gal(b1-4)GlcNAc(b1-6)]Man(a1-6)[Gal(b1-4)GlcNAc(b1-2)Man(a1-3)]Man(b1-4)GlcNAc(b1-4)[Fuc(a1-6)]GlcNAc. The method in brief: (§1)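 Glycan array data were curated from 3228 arrays in the Consortium for Functional Glycomics database and kept only where the protein sequence was available. Glycan names were converted to IUPAC-condensed notation, and columns mapping to the same glycan were averaged. The binding signal is a within-array Z-score, averaged across arrays of the same protein sequence at different concentrations or buffers and across linkers. Negative Z-scores can be read as non-binding.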

The target of test [2] is Gal(b1-4)GlcNAc(b1-2)[Gal(b1-4)GlcNAc(b1-6)]Man(a1-6)[GlcNAc(b1-4)][Gal(b1-4)GlcNAc(b1-2)Man(a1-3)]Man(b1-4)GlcNAc(b1-4)GlcNAc. In outline: as §1
In test [3] the target is Gal(b1-4)GlcNAc(b1-2)[Gal(b1-4)GlcNAc(b1-6)]Man(a1-6)[GlcNAc(b1-4)][Gal(b1-4)GlcNAc(b1-2)[Gal(b1-4)GlcNAc(b1-4)]Man(a1-3)]Man(b1-4)GlcNAc(b1-4)[Fuc(a1-6)]GlcNAc. The method in brief:
as §1

In test [4] the target is Gal(b1-4)GlcNAc(b1-3)Gal(b1-3)GalNAc. The method in brief: as §1
Test [5] addresses Gal(b1-4)GlcNAc(b1-3)Gal(b1-3)GlcNAc. The method in brief: as §1
Test [6] has as its target Gal(b1-4)GlcNAc(b1-3)Gal(b1-4)Glc. The method in brief: as §1
The target in test [7] is Gal(b1-4)GlcNAc(b1-3)Gal(b1-4)GlcNAc. The method in brief:
as §1

In test [8] the target is Gal(b1-4)GlcNAc(b1-3)Gal(b1-4)GlcNAc(b1-2)Man(a1-3)[Gal(b1-4)GlcNAc(b1-3)Gal(b1-4)GlcNAc(b1-2)Man(a1-6)]Man(b1-4)GlcNAc(b1-4)GlcNAc. In outline:
as §1

In test [9] the target is Gal(b1-4)GlcNAc(b1-3)Gal(b1-4)GlcNAc(b1-2)Man(a1-3)[Gal(b1-4)GlcNAc(b1-3)Gal(b1-4)GlcNAc(b1-2)Man(a1-6)]Man(b1-4)GlcNAc(b1-4)[Fuc(a1-6)]GlcNAc. In outline: as §1
The target in test [10] is Gal(b1-4)GlcNAc(b1-3)Gal(b1-4)GlcNAc(b1-2)[Gal(b1-4)GlcNAc(b1-3)Gal(b1-4)GlcNAc(b1-6)]Man(a1-6)[Gal(b1-4)GlcNAc(b1-3)Gal(b1-4)GlcNAc(b1-2)Man(a1-3)]Man(b1-4)GlcNAc(b1-4)GlcNAc. The method in brief: as §1
The target of test [11] is Gal(b1-4)GlcNAc(b1-3)Gal(b1-4)GlcNAc(b1-2)[Gal(b1-4)GlcNAc(b1-3)Gal(b1-4)GlcNAc(b1-6)]Man(a1-6)[Gal(b1-4)GlcNAc(b1-3)Gal(b1-4)GlcNAc(b1-2)Man(a1-3)]Man(b1-4)GlcNAc(b1-4)[Fuc(a1-6)]GlcNAc. In outline:
as §1

Test [12] addresses Gal(b1-4)GlcNAc(b1-3)Gal(b1-4)GlcNAc(b1-3)Gal(b1-4)GlcNAc. The method in brief: as §1
Test [13] deals with Gal(b1-4)GlcNAc(b1-3)Gal(b1-4)GlcNAc(b1-3)Gal(b1-4)GlcNAc(b1-2)Man(a1-3)[Gal(b1-4)GlcNAc(b1-3)Gal(b1-4)GlcNAc(b1-3)Gal(b1-4)GlcNAc(b1-2)Man(a1-6)]Man(b1-4)GlcNAc(b1-4)GlcNAc. The method in brief:
as §1

The target of test [14] is Gal(b1-4)GlcNAc(b1-3)Gal(b1-4)GlcNAc(b1-3)Gal(b1-4)GlcNAc(b1-2)Man(a1-3)[Gal(b1-4)GlcNAc(b1-3)Gal(b1-4)GlcNAc(b1-3)Gal(b1-4)GlcNAc(b1-2)Man(a1-6)]Man(b1-4)GlcNAc(b1-4)[Fuc(a1-6)]GlcNAc. In outline:
as §1

Test [15] deals with Gal(b1-4)GlcNAc(b1-3)Gal(b1-4)GlcNAc(b1-3)Gal(b1-4)GlcNAc(b1-2)[Gal(b1-4)GlcNAc(b1-3)Gal(b1-4)GlcNAc(b1-3)Gal(b1-4)GlcNAc(b1-6)]Man(a1-6)[Gal(b1-4)GlcNAc(b1-3)Gal(b1-4)GlcNAc(b1-3)Gal(b1-4)GlcNAc(b1-2)Man(a1-3)]Man(b1-4)GlcNAc(b1-4)[Fuc(a1-6)]GlcNAc. In outline: as §1
The target in test [16] is Gal(b1-4)GlcNAc(b1-3)Gal(b1-4)GlcNAc(b1-3)Gal(b1-4)GlcNAc(b1-3)Gal(b1-4)GlcNAc(b1-2)Man(a1-3)[Gal(b1-4)GlcNAc(b1-3)Gal(b1-4)GlcNAc(b1-3)Gal(b1-4)GlcNAc(b1-3)Gal(b1-4)GlcNAc(b1-2)Man(a1-6)]Man(b1-4)GlcNAc(b1-4)GlcNAc. In outline: as §1
Test [17] has as its target Gal(b1-4)GlcNAc(b1-3)Gal(b1-4)GlcNAc(b1-3)Gal(b1-4)GlcNAc(b1-3)Gal(b1-4)GlcNAc(b1-2)Man(a1-3)[Gal(b1-4)GlcNAc(b1-3)Gal(b1-4)GlcNAc(b1-3)Gal(b1-4)GlcNAc(b1-3)Gal(b1-4)GlcNAc(b1-2)Man(a1-6)]Man(b1-4)GlcNAc(b1-4)[Fuc(a1-6)]GlcNAc. The method in brief: as §1
The target in test [18] is Gal(b1-4)GlcNAc(b1-3)Gal(b1-4)GlcNAc(b1-3)Gal(b1-4)GlcNAc(b1-3)Gal(b1-4)GlcNAc(b1-2)[Gal(b1-4)GlcNAc(b1-3)Gal(b1-4)GlcNAc(b1-3)Gal(b1-4)GlcNAc(b1-3)Gal(b1-4)GlcNAc(b1-6)]Man(a1-6)[Gal(b1-4)GlcNAc(b1-3)Gal(b1-4)GlcNAc(b1-3)Gal(b1-4)GlcNAc(b1-3)Gal(b1-4)GlcNAc(b1-2)Man(a1-3)]Man(b1-4)GlcNAc(b1-4)[Fuc(a1-6)]GlcNAc. The method in brief:
as §1

For test [19], the target named is Gal(b1-4)GlcNAc(b1-3)Gal(b1-4)GlcNAc(b1-3)Gal(b1-4)GlcNAc(b1-3)Gal(b1-4)GlcNAc(b1-3)Gal(b1-4)GlcNAc(b1-2)Man(a1-3)[Gal(b1-4)GlcNAc(b1-3)Gal(b1-4)GlcNAc(b1-3)Gal(b1-4)GlcNAc(b1-3)Gal(b1-4)GlcNAc(b1-3)Gal(b1-4)GlcNAc(b1-2)Man(a1-6)]Man(b1-4)GlcNAc(b1-4)GlcNAc. In outline:
as §1

Test [20] addresses Gal(b1-4)GlcNAc(b1-3)Gal(b1-4)GlcNAc(b1-3)Gal(b1-4)GlcNAc(b1-3)Gal(b1-4)GlcNAc(b1-3)Gal(b1-4)GlcNAc(b1-2)Man(a1-3)[Gal(b1-4)GlcNAc(b1-3)Gal(b1-4)GlcNAc(b1-3)Gal(b1-4)GlcNAc(b1-3)Gal(b1-4)GlcNAc(b1-3)Gal(b1-4)GlcNAc(b1-2)Man(a1-6)]Man(b1-4)GlcNAc(b1-4)[Fuc(a1-6)]GlcNAc. The method in brief: as §1
Test [21] concerns the target Gal(b1-4)GlcNAc(b1-3)Gal(b1-4)GlcNAc(b1-3)Gal(b1-4)GlcNAc(b1-3)Gal(b1-4)GlcNAc(b1-3)Gal(b1-4)GlcNAc(b1-2)[Gal(b1-4)GlcNAc(b1-3)Gal(b1-4)GlcNAc(b1-3)Gal(b1-4)GlcNAc(b1-3)Gal(b1-4)GlcNAc(b1-3)Gal(b1-4)GlcNAc(b1-6)]Man(a1-6)[Gal(b1-4)GlcNAc(b1-3)Gal(b1-4)GlcNAc(b1-3)Gal(b1-4)GlcNAc(b1-3)Gal(b1-4)GlcNAc(b1-3)Gal(b1-4)GlcNAc(b1-2)Man(a1-3)]Man(b1-4)GlcNAc(b1-4)[Fuc(a1-6)]GlcNAc. The method in brief: as §1

Test [22] deals with Gal(b1-4)GlcNAc(b1-3)Gal(b1-4)GlcNAc(b1-3)Gal(b1-4)GlcNAc(b1-3)Gal(b1-4)GlcNAc(b1-3)Gal(b1-4)GlcNAc(b1-3)Gal(b1-4)GlcNAc(b1-2)Man(a1-3)[Gal(b1-4)GlcNAc(b1-3)Gal(b1-4)GlcNAc(b1-3)Gal(b1-4)GlcNAc(b1-3)Gal(b1-4)GlcNAc(b1-3)Gal(b1-4)GlcNAc(b1-3)Gal(b1-4)GlcNAc(b1-2)Man(a1-6)]Man(b1-4)GlcNAc(b1-4)GlcNAc. In outline:
as §1

Test [23] deals with Gal(b1-4)GlcNAc(b1-3)Gal(b1-4)GlcNAc(b1-3)GalNAc. In outline:
as §1

The other results are listed elsewhere or left out.

B1: Actd5 (Actinidia), P84527 (protein)
chain: ISSCNGPCRDLNDCDGQLICIKGKCNDDPQVGTHICRGTTHSHQPGGCKPSGTLTCRGKSYPTYDCSPPVTSSTPAKLTNNDFSEGGDDGGPSECDESYHNNNERIVALSTGWYNGGSRCGKMIRITASNGKSVSAKVVDECDSRHGCDKEHAGQPPCRNNIVDGSNAVWSALGLDKNVGVVDITWSMA
Consider B1, for which the “glycan array binding signal (z-score)” value in [1] is 0.729; in test [2] it was 0; in test [3], 0.095; in test [4], -0.619; in test [5], -0.59; in test [6] it was 0.688. Further, the “glycan array binding signal (z-score)” value is -0.256 in test [7]; 3.9 in test [8]; 2.17 in test [9]; 0.991 in test [10]; 0.632 in [11]; -1 in test [12]. The “glycan array binding signal (z-score)” value worked out at 2.6 in [13]; 1.54 in test [14]; 1.33 in test [15]; 1.34 in [16]; 0.846 in [17]; 0.319 in test [18]. Further, the “glycan array binding signal (z-score)” value in [19] is 0.25; in test [20] it was 1.17; in [21], 0.644; in test [22], -0.135; in test [23], 2.99.
